The list shows a part of the results.
Assays:
Experiment in all cases: log2 fold change, soluble protein after heating vs DMSO (PISA); higher = thermal stabilisation; K562 cells, 10 uM, 30 min; active = over 0.2 and 3.5 SD of the protein, either way, in both replicates (recomputed)
saracatinib = compound: CN1CCN(CCOc2cc(OC3CCOCC3)c3c(Nc4c(Cl)ccc5c4OCO5)ncnc3c2)CC1 [saracatinib]
Method in brief: (§1)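 K562 cells at 2×10^6 cells/mL were treated with 10 μM compound for 30 min. Aliquots were heated for 3 min across 48°C-58°C, pooled, and extracted in PBS with 0.5% NP-40 at 4°C; soluble protein was the supernatant after 21,000xg for 90 min. Soluble protein was quantified by TMTpro 16plex LC-MS/MS with channel sums equalised, and reported as log2 fold change in thermal stability against DMSO controls, with values from duplicates.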

Amino acid sequences for entries named in this document (tags omitted). A change or cut given only in a name is not applied to a line headed by its entry.
UniProt P67812: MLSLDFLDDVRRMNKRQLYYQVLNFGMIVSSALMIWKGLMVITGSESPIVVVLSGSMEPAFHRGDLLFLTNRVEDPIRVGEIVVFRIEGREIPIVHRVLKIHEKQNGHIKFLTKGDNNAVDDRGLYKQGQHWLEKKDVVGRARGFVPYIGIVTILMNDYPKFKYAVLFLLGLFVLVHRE
UniProt Q9Y512: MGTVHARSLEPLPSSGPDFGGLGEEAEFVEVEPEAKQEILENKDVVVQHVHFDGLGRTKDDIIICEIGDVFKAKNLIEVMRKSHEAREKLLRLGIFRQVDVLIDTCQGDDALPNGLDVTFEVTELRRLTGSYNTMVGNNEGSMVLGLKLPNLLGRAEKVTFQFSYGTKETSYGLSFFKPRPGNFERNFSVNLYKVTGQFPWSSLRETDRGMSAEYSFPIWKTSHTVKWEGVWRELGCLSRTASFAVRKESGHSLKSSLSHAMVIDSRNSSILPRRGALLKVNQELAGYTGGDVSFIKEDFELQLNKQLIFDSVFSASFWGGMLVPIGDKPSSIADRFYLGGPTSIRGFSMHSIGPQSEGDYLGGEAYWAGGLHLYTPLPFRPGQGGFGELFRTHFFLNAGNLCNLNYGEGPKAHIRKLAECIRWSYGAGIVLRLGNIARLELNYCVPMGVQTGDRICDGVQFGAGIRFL
UniProt Q8N488: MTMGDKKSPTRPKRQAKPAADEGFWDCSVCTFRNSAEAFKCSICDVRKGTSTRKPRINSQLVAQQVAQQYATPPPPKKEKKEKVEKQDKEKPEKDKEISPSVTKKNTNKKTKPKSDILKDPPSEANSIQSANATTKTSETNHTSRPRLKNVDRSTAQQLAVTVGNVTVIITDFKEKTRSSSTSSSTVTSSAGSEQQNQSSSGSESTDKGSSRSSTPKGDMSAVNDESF
UniProt Q6IQ49: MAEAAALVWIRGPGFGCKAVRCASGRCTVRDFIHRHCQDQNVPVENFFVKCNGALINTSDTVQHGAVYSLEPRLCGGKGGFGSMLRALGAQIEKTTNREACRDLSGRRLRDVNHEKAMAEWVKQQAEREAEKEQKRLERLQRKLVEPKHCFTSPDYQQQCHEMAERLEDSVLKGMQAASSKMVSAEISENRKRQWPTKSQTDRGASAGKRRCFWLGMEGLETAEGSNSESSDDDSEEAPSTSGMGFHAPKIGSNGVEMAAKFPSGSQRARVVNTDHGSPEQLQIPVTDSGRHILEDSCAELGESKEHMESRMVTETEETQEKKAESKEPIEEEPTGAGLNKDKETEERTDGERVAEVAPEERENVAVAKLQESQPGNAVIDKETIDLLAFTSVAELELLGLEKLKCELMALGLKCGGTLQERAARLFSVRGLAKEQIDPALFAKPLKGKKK
UniProt O00422: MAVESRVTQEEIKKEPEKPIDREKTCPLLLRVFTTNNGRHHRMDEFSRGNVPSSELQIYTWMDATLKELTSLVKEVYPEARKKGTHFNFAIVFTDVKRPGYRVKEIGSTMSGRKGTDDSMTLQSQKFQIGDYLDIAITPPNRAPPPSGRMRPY
UniProt Q9NRP4: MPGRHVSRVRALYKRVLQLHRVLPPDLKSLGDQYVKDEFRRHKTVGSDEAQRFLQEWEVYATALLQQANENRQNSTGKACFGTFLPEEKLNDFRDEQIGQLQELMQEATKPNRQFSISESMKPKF
UniProt Q15404: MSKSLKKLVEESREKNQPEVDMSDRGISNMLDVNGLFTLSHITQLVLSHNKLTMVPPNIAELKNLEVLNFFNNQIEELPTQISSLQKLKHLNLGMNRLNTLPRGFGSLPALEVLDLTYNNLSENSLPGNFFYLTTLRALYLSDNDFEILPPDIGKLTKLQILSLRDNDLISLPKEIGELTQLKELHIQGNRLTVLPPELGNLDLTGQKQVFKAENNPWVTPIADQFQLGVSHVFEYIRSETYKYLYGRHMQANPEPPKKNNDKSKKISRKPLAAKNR
UniProt P31949: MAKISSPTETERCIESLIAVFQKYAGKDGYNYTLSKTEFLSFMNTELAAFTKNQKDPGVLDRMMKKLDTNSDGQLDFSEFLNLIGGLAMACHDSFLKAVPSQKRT
UniProt Q9BW04: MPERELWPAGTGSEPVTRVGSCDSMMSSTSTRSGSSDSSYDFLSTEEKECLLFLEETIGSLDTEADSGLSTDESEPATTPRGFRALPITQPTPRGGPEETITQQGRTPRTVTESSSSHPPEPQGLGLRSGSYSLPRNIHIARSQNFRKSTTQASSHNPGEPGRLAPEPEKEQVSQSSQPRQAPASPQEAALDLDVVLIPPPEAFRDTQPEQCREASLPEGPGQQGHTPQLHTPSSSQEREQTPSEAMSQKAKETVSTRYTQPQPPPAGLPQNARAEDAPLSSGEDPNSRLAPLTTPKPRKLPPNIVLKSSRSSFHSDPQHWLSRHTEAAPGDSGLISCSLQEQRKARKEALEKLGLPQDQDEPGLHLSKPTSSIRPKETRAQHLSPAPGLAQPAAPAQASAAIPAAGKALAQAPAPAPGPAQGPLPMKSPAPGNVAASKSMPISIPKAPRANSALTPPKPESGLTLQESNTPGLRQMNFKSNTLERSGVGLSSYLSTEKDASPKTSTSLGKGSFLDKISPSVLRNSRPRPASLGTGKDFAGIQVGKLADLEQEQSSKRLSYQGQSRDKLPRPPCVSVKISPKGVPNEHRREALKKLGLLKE
UniProt O00442: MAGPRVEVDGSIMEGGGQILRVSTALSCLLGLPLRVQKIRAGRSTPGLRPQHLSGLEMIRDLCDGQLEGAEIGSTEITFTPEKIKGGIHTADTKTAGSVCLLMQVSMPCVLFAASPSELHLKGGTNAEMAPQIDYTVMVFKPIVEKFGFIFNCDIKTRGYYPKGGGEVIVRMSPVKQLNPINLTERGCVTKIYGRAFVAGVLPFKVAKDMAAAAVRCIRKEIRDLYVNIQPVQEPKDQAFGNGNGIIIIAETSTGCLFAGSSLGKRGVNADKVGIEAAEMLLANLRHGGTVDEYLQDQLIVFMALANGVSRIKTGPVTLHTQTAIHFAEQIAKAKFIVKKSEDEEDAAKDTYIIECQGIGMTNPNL
UniProt P53992: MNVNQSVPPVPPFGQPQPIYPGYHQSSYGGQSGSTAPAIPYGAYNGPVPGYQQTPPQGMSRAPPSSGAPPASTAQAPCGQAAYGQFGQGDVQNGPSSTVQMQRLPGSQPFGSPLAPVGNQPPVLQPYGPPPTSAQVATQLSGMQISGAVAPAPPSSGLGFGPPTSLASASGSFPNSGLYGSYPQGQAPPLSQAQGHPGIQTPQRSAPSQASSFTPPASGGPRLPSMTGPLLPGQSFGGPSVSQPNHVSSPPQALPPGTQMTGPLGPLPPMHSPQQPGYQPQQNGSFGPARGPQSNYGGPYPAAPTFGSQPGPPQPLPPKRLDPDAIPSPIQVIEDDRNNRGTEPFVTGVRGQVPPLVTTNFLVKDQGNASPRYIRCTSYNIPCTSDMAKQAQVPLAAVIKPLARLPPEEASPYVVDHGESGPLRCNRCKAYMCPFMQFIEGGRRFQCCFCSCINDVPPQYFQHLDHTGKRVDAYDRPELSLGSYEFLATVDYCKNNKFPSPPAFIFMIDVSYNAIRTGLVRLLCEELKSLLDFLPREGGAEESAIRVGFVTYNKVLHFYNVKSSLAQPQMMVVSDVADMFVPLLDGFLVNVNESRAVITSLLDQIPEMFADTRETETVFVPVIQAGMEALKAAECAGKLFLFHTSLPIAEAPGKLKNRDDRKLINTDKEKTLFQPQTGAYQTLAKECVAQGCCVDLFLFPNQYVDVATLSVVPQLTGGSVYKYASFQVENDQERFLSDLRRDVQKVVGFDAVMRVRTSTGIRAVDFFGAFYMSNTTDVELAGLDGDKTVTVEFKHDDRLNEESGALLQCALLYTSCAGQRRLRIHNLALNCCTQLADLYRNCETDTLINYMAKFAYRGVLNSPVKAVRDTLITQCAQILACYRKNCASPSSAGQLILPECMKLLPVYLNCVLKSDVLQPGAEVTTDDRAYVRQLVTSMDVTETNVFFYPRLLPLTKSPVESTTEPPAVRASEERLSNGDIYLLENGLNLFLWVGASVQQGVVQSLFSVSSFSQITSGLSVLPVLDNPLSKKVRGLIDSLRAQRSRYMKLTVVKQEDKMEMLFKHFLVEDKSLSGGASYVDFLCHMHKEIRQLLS
UniProt O14828: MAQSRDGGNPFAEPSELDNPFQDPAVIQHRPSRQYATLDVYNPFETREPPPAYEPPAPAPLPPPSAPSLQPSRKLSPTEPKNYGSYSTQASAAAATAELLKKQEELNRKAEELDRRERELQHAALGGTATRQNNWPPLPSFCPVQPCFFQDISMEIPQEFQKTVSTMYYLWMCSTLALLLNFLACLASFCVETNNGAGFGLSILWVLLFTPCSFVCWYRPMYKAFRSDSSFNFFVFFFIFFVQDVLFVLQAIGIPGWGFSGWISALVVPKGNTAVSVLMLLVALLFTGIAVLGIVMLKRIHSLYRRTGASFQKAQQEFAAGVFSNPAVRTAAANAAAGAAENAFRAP
UniProt P25815: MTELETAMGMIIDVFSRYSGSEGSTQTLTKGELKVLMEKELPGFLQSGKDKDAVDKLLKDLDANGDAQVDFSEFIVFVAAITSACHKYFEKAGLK
UniProt Q9Y3B9: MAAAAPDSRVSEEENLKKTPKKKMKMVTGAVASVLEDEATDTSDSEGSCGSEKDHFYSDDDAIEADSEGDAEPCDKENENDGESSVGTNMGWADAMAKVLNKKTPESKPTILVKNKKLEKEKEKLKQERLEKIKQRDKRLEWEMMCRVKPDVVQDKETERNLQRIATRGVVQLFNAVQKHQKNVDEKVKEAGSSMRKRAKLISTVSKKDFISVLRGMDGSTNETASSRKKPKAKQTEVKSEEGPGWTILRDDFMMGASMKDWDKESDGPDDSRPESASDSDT
UniProt Q9UBE0: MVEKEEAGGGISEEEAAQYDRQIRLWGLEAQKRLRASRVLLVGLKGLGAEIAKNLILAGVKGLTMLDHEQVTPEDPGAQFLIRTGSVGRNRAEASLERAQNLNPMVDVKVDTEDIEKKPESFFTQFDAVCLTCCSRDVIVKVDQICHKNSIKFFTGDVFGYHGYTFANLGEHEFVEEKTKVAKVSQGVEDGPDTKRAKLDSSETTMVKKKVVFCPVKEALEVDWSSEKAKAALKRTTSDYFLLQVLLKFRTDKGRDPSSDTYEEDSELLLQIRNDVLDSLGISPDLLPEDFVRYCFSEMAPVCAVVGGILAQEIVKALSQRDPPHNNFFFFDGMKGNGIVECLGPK

sotrastaurin = compound: CN1CCN(c2nc(C3=C(c4c[nH]c5ccccc45)C(=O)NC3=O)c3ccccc3n2)CC1 [sotrastaurin]
Method in brief: as §1

alvocidib = compound: CN1CC[C@H](c2c(O)cc(O)c3c(=O)cc(-c4ccccc4Cl)oc23)[C@H](O)C1 [alvocidib]
Method in brief: as §1

Tubastatin A = compound: CN1CCc2c(c3ccccc3n2Cc2ccc(C(=O)NO)cc2)C1 [Tubastatin A]
Method in brief: as §1

[1] = compound: CNC(=O)C1=CC=CC=C1NC2=NC(=NC=C2Cl)NC3=C(C=C(C=C3)N4CCOCC4)OC
Method in brief: as §1

defactinib = compound: CNC(=O)c1ccc(Nc2ncc(C(F)(F)F)c(NCc3nccnc3N(C)S(C)(=O)=O)n2)cc1 [defactinib]
Method in brief: as §1

rucaparib = compound: CNCc1ccc(-c2[nH]c3cc(F)cc4c3c2CCNC4=O)cc1 [rucaparib]
Method in brief: as §1

[2] = compound: CNc1nc(-c2ccc3c(N)n[nH]c3c2)cc(N2C[C@@H](C(=O)NC3CCCCC3)CC[C@H]2C)n1
Method in brief: as §1

encorafenib = compound: COC(=O)N[C@@H](C)CNc1nccc(-c2cn(C(C)C)nc2-c2cc(Cl)cc(NS(C)(=O)=O)c2F)n1 [encorafenib]
Method in brief: as §1

[3] = compound: COC(=O)[C@H](CCSC)NC(=O)C1=C(C=C(C=C1)NC[C@H](CS)N)C2=CC=CC=C2
Method in brief: as §1

[4] = compound: COC1=CC=C(C=C1)CN2C=CC3=C2C=C(C=C3)C(=O)NO
Method in brief: as §1

filanesib = compound: CON(C)C(=O)N1N=C(c2cc(F)ccc2F)S[C@@]1(CCCN)c1ccccc1 [filanesib]
Method in brief: as §1

zotarolimus = compound: CO[C@H]1C[C@@H]2CC[C@@H](C)[C@@](O)(O2)C(=O)C(=O)N2CCCC[C@H]2C(=O)O[C@H]([C@H](C)C[C@@H]2CC[C@H](n3cnnn3)[C@H](OC)C2)CC(=O)[C@H](C)/C=C(\C)[C@@H](O)[C@@H](OC)C(=O)[C@H](C)C[C@H](C)/C=C/C=C/C=C/1C [zotarolimus]
Method in brief: as §1

idasanutlin = compound: COc1cc(C(=O)O)ccc1NC(=O)[C@@H]1N[C@@H](CC(C)(C)C)[C@](C#N)(c2ccc(Cl)cc2F)[C@H]1c1cccc(Cl)c1F [idasanutlin]
Method in brief: as §1

alisertib = compound: COc1cc(Nc2ncc3c(n2)-c2ccc(Cl)cc2C(c2c(F)cccc2OC)=NC3)ccc1C(=O)O [alisertib]
Method in brief: as §1

[5] = compound: COc1cc2nc(-c3cc(F)ccc3O)nc(N[C@@H]3CNC[C@H]3C(C)(C)O)c2cc1OC
Method in brief: as §1

gefitinib = compound: COc1cc2ncnc(Nc3ccc(F)c(Cl)c3)c2cc1OCCCN1CCOCC1 [gefitinib]
Method in brief: as §1

[6] = compound: COc1cccc2cc(-c3nc([C@H]4CC[C@H](C(=O)O)CC4)n4ncnc(N)c34)[nH]c12
Method in brief: as §1

lapatinib = compound: CS(=O)(=O)CCNCc1ccc(-c2ccc3ncnc(Nc4ccc(OCc5cccc(F)c5)c(Cl)c4)c3c2)o1 [lapatinib]
Method in brief: as §1

pictilisib = compound: CS(=O)(=O)N1CCN(Cc2cc3nc(-c4cccc5[nH]ncc45)nc(N4CCOCC4)c3s2)CC1 [pictilisib]
Method in brief: as §1

Measured: log2 fold change

SEC11A isoform 3 (UniProt P67812)
inactive: saracatinib 0.012 | sotrastaurin 0.037 | alvocidib 0.039 | Tubastatin A 0.012 | [1] 0.022 | defactinib 0.028 | rucaparib -0.03 | [2] -0.012 | encorafenib 0.052 | [3] -0.048 | [4] -0.09 | filanesib -0.015 | zotarolimus -0.003 | idasanutlin -0.046 | alisertib -0.073 | [5] 0.022 | gefitinib 0.004 | [6] 0.013 | lapatinib 0.056 | pictilisib -0.072

SAMM50 (UniProt Q9Y512)
inactive: saracatinib 0.053 | sotrastaurin 0.036 | alvocidib 0.005 | Tubastatin A -0.04 | [1] 0.001 | defactinib 0.001 | rucaparib -0.023 | [2] -0.034 | encorafenib 0.005 | [3] 0.038 | [4] 0.007 | filanesib -0.043 | zotarolimus -0.019 | idasanutlin -0.008 | alisertib -0.082 | [5] -0.05 | gefitinib 0.007 | [6] 0.039 | lapatinib -0.015 | pictilisib 0.027

RYBP (UniProt Q8N488)
inactive: saracatinib 0.076 | sotrastaurin 0.006 | alvocidib 0.134 | Tubastatin A -0.064 | [1] 0.023 | defactinib -0.031 | rucaparib -0.038 | [2] -0.016 | encorafenib 0.009 | [3] 0.035 | [4] -0.066 | filanesib -0.01 | zotarolimus -0.002 | idasanutlin 0.148 | alisertib -0.048 | [5] -0.11 | gefitinib 0.089 | [6] 0.003 | lapatinib 0.033 | pictilisib -0.025

SDE2 (UniProt Q6IQ49)
inactive: saracatinib -0.03 | sotrastaurin 0.022 | alvocidib 0.103 | Tubastatin A 0.085 | [1] 0.01 | defactinib 0.015 | rucaparib -0.09 | [2] -0.072 | encorafenib 0.014 | [3] 0.007 | [4] -0.06 | filanesib -0.025 | zotarolimus -0.032 | idasanutlin 0.009 | alisertib 0.034 | [5] 0.033 | gefitinib -0.007 | [6] 0.021 | lapatinib -0.058 | pictilisib 0.021

SAP18 isoform 2 (UniProt O00422)
inactive: saracatinib -0.012 | sotrastaurin -0.092 | alvocidib 0.078 | Tubastatin A 0.008 | [1] -0.004 | defactinib 0.181 | rucaparib 0.224 | [2] 0.015 | encorafenib -0.037 | [3] -0.03 | [4] 0.084 | filanesib 0.384 | zotarolimus 0.009 | idasanutlin 0.174 | alisertib -0.07 | [5] 0.036 | gefitinib -0.034 | [6] 0 | lapatinib 0.07 | pictilisib 0

SDHAF3 (UniProt Q9NRP4)
inactive: saracatinib 0.091 | sotrastaurin -0.031 | alvocidib -0.009 | Tubastatin A -0.133 | [1] 0.015 | defactinib -0.051 | rucaparib 0.023 | [2] -0.155 | encorafenib -0.024 | [3] 0.013 | [4] -0.049 | filanesib -0.11 | zotarolimus 0.021 | idasanutlin -0.025 | alisertib -0.044 | [5] -0.066 | gefitinib 0.216 | [6] 0.027 | lapatinib -0.065 | pictilisib 0.151

2 records picked at random from the list so far:
RYBP (UniProt Q8N488)
inactive: saracatinib 0.076 | sotrastaurin 0.006 | alvocidib 0.134 | Tubastatin A -0.064 | [1] 0.023 | defactinib -0.031 | rucaparib -0.038 | [2] -0.016 | encorafenib 0.009 | [3] 0.035 | [4] -0.066 | filanesib -0.01 | zotarolimus -0.002 | idasanutlin 0.148 | alisertib -0.048 | [5] -0.11 | gefitinib 0.089 | [6] 0.003 | lapatinib 0.033 | pictilisib -0.025

SDE2 (UniProt Q6IQ49)
inactive: saracatinib -0.03 | sotrastaurin 0.022 | alvocidib 0.103 | Tubastatin A 0.085 | [1] 0.01 | defactinib 0.015 | rucaparib -0.09 | [2] -0.072 | encorafenib 0.014 | [3] 0.007 | [4] -0.06 | filanesib -0.025 | zotarolimus -0.032 | idasanutlin 0.009 | alisertib 0.034 | [5] 0.033 | gefitinib -0.007 | [6] 0.021 | lapatinib -0.058 | pictilisib 0.021

Additional entries.

RSU1 (UniProt Q15404)
inactive: saracatinib -0.007 | sotrastaurin 0.031 | alvocidib 0.013 | Tubastatin A -0.006 | [1] -0.055 | defactinib -0.04 | rucaparib -0.027 | [2] -0.023 | encorafenib -0.016 | [3] -0.006 | [4] -0.036 | filanesib -0.011 | zotarolimus -0.016 | idasanutlin -0.01 | alisertib -0.062 | [5] 0.012 | gefitinib -0.006 | [6] 0.002 | lapatinib -0.006 | pictilisib -0.004

S100A11 (UniProt P31949)
inactive: saracatinib -0.026 | sotrastaurin 0.025 | alvocidib 0.03 | Tubastatin A -0.044 | [1] -0.018 | defactinib 0.002 | rucaparib 0.009 | [2] -0.017 | encorafenib -0.062 | [3] -0.05 | [4] 0.057 | filanesib -0.026 | zotarolimus 0.043 | idasanutlin -0.028 | alisertib -0.056 | [5] -0.049 | gefitinib 0.02 | [6] 0.065 | lapatinib 0.025 | pictilisib 0

SARG (UniProt Q9BW04)
inactive: saracatinib 0.013 | sotrastaurin 0.024 | alvocidib 0.032 | Tubastatin A -0.057 | [1] -0.07 | defactinib -0.026 | rucaparib -0.089 | [2] -0.118 | encorafenib -0.051 | [3] -0.016 | [4] -0.017 | filanesib -0.062 | zotarolimus -0.045 | idasanutlin -0.005 | alisertib 0.035 | [5] 0.029 | gefitinib -0.03 | [6] 0.04 | lapatinib -0.015 | pictilisib -0.012

RTCA (UniProt O00442)
inactive: saracatinib 0.051 | sotrastaurin -0.003 | alvocidib -0.036 | Tubastatin A -0.011 | [1] 0.025 | defactinib -0.014 | rucaparib 0.022 | [2] -0.054 | encorafenib 0.002 | [3] -0.01 | [4] 0.004 | filanesib -0.043 | zotarolimus -0.001 | idasanutlin -0.036 | alisertib -0.09 | [5] 0.025 | gefitinib 0.011 | [6] 0.01 | lapatinib 0.005 | pictilisib 0.036

SEC24C (UniProt P53992)
inactive: saracatinib 0.032 | sotrastaurin -0.034 | alvocidib -0.075 | Tubastatin A 0.044 | [1] 0.031 | defactinib -0.081 | rucaparib -0.012 | [2] 0.012 | encorafenib 0.042 | [3] -0.03 | [4] 0.074 | filanesib -0.012 | zotarolimus 0.017 | idasanutlin -0.033 | alisertib -0.013 | [5] 0.063 | gefitinib 0.011 | [6] -0.02 | lapatinib 0.031 | pictilisib -0.044

SCAMP3 (UniProt O14828)
inactive: saracatinib 0.057 | sotrastaurin 0.024 | alvocidib 0.032 | Tubastatin A -0.056 | [1] 0.046 | defactinib 0 | rucaparib 0.009 | [2] -0.061 | encorafenib -0.026 | [3] 0.059 | [4] 0.032 | filanesib -0.053 | zotarolimus -0.089 | idasanutlin 0.033 | alisertib -0.101 | [5] -0.077 | gefitinib 0.017 | [6] -0.024 | lapatinib 0.037 | pictilisib -0.024

S100P (UniProt P25815)
inactive: saracatinib -0.152 | sotrastaurin 0.162 | alvocidib -0.039 | Tubastatin A 0.079 | [1] 0.047 | defactinib -0.075 | rucaparib -0.088 | [2] 0.001 | encorafenib -0.068 | [3] 0.049 | [4] 0.151 | filanesib 0.081 | zotarolimus 0.041 | idasanutlin -0.033 | alisertib -0.013 | [5] -0.031 | gefitinib -0.002 | [6] 0.022 | lapatinib -0.086 | pictilisib 0.087

RRP15 (UniProt Q9Y3B9)
inactive: saracatinib 0.042 | sotrastaurin 0.028 | alvocidib 0.001 | Tubastatin A -0.014 | [1] -0.035 | defactinib 0.024 | rucaparib -0.025 | [2] -0.033 | encorafenib -0.032 | [3] 0.068 | [4] -0.049 | filanesib 0.012 | zotarolimus 0.033 | idasanutlin 0.037 | alisertib -0.09 | [5] -0.077 | gefitinib 0.016 | [6] 0.027 | lapatinib 0.013 | pictilisib -0.098

SAE1 (UniProt Q9UBE0)
inactive: saracatinib 0.019 | sotrastaurin -0.01 | alvocidib -0.022 | Tubastatin A -0.007 | [1] 0.055 | defactinib -0.041 | rucaparib -0.041 | [2] -0.02 | encorafenib 0 | [3] -0.02 | [4] -0.001 | filanesib -0.044 | zotarolimus 0.045 | idasanutlin -0.07 | alisertib -0.027 | [5] 0.043 | gefitinib -0.019 | [6] -0.013 | lapatinib -0.015 | pictilisib 0.06

Source: the supplement of paper PMC10849652
